Results are given in words; binding and its absence hold for the method and conditions named. In cells and extracts the contact can be indirect. Some entries that bind do so weakly or less than the wild type.
Molecular target: MYC-RTN3 (Wild type RTN3 CDS with C-terminal MYC-tag and Flag-tag in pEnter) (UniProt O95197)
Test: co-IP; lysate of primary cultured lung fibroblasts transfected with MYC-RTN3 plasmids; Protein A + G beads, 12 h; Western blot

Protein sequences, listed by entry. Tags and fused reporters are not part of them.
UniProt O95197: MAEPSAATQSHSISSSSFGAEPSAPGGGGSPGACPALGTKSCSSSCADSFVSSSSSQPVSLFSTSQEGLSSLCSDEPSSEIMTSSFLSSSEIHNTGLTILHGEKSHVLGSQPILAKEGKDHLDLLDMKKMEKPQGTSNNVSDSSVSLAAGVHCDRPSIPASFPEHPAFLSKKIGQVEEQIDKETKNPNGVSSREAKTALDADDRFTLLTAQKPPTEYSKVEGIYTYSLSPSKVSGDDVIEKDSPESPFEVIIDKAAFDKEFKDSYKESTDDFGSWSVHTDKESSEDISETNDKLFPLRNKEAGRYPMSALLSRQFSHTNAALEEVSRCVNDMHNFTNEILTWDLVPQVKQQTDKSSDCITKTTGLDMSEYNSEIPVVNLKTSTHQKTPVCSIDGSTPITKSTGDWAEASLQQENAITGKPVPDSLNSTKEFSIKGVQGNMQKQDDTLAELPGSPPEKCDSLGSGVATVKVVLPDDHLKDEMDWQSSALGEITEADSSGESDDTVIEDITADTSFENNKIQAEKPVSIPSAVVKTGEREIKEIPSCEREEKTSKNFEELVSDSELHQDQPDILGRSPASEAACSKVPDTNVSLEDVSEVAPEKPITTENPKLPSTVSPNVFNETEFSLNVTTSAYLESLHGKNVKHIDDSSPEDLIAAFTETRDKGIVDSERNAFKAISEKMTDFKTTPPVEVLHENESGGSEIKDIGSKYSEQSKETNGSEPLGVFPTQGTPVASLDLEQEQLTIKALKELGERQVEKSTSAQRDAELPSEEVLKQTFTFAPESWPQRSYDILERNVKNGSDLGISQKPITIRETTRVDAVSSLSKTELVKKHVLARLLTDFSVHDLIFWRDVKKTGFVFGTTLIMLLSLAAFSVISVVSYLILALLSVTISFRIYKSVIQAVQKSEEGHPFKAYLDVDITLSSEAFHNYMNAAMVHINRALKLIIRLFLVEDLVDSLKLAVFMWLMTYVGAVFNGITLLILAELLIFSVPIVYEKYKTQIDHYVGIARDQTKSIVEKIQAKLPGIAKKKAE

B1: CRTH2 (chemoattractant receptor-homologous molecule expressed on T-helper type 2 cells) (receptor, UniProt Q9Z2J6 1-382)
chain: MANVTLKPLCPLLEEMVQLPNHSNSSLRYIDHVSVLLHGLASLLGLVENGLILFVVGCRMRQTVVTTWVLHLALSDLLAAASLPFFTYFLAVGHSWELGTTFCKLHSSVFFLNMFASGFLLSAISLDRCLQVVRPVWAQNHRTVAVAHRVCLMLWALAVLNTIPYFVFRDTIPRLDGRIMCYYNLLLWNPGPDRDTTCDYRQKALAVSKFLLAFMVPLAIIASSHVAVSLRLHHRGRQRTGRFVRLVAAIVVAFVLCWGPYHIFSLLEARAHSVTTLRQLASRGLPFVTSLAFFNSVVNPLLYVFTCPDMLYKLRRSLRAVLESVLVEDSDQSGGLRNRRRRASSTATPASTLLLADRIPQLRPTRLIGWMRRGSAEVPQRV
Question: Which binding does the source give for B1 here?
Answer: binds
